PubChem BioAssay AID1259308, NCATS, 2017
Test: 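Genes whose loss raises luciferase production in HEK293 cells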 (primary screen). Cells: human HEK293 embryonic kidney cells stably expressing firefly luciferase (HEK-CMV-Luc2-Hygro). Reagents: single siRNA against human genes, 0.8 pmol siRNA per well. Time to read-out: 72 h. Measurement: 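Reporter luminescence and viable-cell signal on separate replicate plates, given as percent of non-targeting control and median/MAD z-scores, plus per-cell luciferase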. Scale: total luciferase, z-score and total luciferase, % of control: higher = more reporter protein produced; luciferase per cell, z-score: higher = more reporter output per viable cell; viable cells, % of control: higher = more viable cells. Call rule: 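Active when the median/MAD z-score for overall luciferase is greater than 3; a gene was taken forward for validation with new siRNAs if at least two of its three siRNAs passed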. Meaning of the calls: active = raised luciferase; inactive = no rise.
The whole screen tested about 59,000 reagents; this is an unselected part. Over the whole deposit, about 1,510 (2.6%) got an active call. 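Calls use total luciferase alone and ignore viability, so some active siRNAs may act by altering cell number.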 A number with no mark means an inactive call. Reagents against one gene are numbered here.

no.	Gene	reagent no.	total luciferase, z-score	total luciferase, % of control	luciferase per cell, z-score	viable cells, % of control
1	PREB (GeneID 10113)	1	3 (active)	142	1.67	102
2	PREB (GeneID 10113)	2	-0.114	79.6	-0.0012	89
3	PREB (GeneID 10113)	3	-1.91	44	-2.17	87.1
4	APH1A (GeneID 51107)	1	-2.09	40.3	-2.78	93.5
5	APH1A (GeneID 51107)	2	-1.58	50.5	-0.751	68.7
6	APH1A (GeneID 51107)	3	-1.67	48.6	-1.69	84.8
7	CPLX2 (GeneID 10814)	1	-0.478	72.4	-0.438	90.8
8	CPLX2 (GeneID 10814)	2	-0.283	76.3	0.234	80.1
9	CPLX2 (GeneID 10814)	3	0.269	87.2	0.547	84.4
10	AP1S3 (GeneID 130340)	1	-0.604	69.9	-1.19	107
11	AP1S3 (GeneID 130340)	2	2.06	123	1.35	96.2
12	AP1S3 (GeneID 130340)	3	-0.266	76.6	-0.526	98.3
13	VPS33A (GeneID 65082)	1	-0.145	79	-0.128	91.3
14	VPS33A (GeneID 65082)	2	0.189	85.7	-0.242	102
15	VPS33A (GeneID 65082)	3	0.054	83	-0.616	109
16	FAM163B (GeneID 642968)	1	0.969	101	0.498	99.1
17	FAM163B (GeneID 642968)	2	0.0882	83.6	-0.152	97.3
18	FAM163B (GeneID 642968)	3	1.13	104	1.2	85.1
19	TMEM38A (GeneID 79041)	1	0.512	92.1	0.824	82.8
20	TMEM38A (GeneID 79041)	2	-0.799	66	-0.488	83.9
21	TMEM38A (GeneID 79041)	3	0.364	89.1	0.223	93.9
22	BOD1L1 (GeneID 259282)	1	3.35 (active)	149	2.53	85.4
23	BOD1L1 (GeneID 259282)	2	0.466	91.2	1.84	62.7
24	BOD1L1 (GeneID 259282)	3	0.555	92.9	0.41	93.2

Laid out differently: 9 of the entries above
Gene	reagent no.	total luciferase, z-score	total luciferase, % of control	luciferase per cell, z-score	viable cells, % of control
VPS33A (GeneID 65082)	2	0.189	85.7	-0.242	102
VPS33A (GeneID 65082)	3	0.054	83	-0.616	109
FAM163B (GeneID 642968)	1	0.969	101	0.498	99.1
FAM163B (GeneID 642968)	2	0.0882	83.6	-0.152	97.3
FAM163B (GeneID 642968)	3	1.13	104	1.2	85.1
TMEM38A (GeneID 79041)	1	0.512	92.1	0.824	82.8
TMEM38A (GeneID 79041)	2	-0.799	66	-0.488	83.9
TMEM38A (GeneID 79041)	3	0.364	89.1	0.223	93.9
BOD1L1 (GeneID 259282)	1	3.35 (active)	149	2.53	85.4

Next reagents follow:
no.	Gene	reagent no.	total luciferase, z-score	total luciferase, % of control	luciferase per cell, z-score	viable cells, % of control
25	PTAR1 (GeneID 375743)	1	1.39	109	0.611	104
26	PTAR1 (GeneID 375743)	2	-1.75	47.1	-1.14	70.9
27	PTAR1 (GeneID 375743)	3	-1.97	42.8	-1.27	66.8
28	SEC61A2 (GeneID 55176)	1	1.72	116	1.44	88.8
29	SEC61A2 (GeneID 55176)	2	1.77	117	1.78	81.9
30	SEC61A2 (GeneID 55176)	3	-0.0767	80.4	-0.801	111
31	NT5DC3 (GeneID 51559)	1	-0.797	66	-0.816	91.5
32	NT5DC3 (GeneID 51559)	2	-0.2	77.9	-0.563	101
33	NT5DC3 (GeneID 51559)	3	-0.0901	80.1	-0.212	94.6
34	ATP1B1 (GeneID 481)	1	-0.263	76.6	-0.605	100
35	ATP1B1 (GeneID 481)	2	-1.03	61.5	-1.13	92.5
36	ATP1B1 (GeneID 481)	3	-1.73	47.5	-1.11	71.1
37	PLEKHO1 (GeneID 51177)	1	0.76	97	0.666	91
38	PLEKHO1 (GeneID 51177)	2	-0.596	70	-0.851	97.9
39	PLEKHO1 (GeneID 51177)	3	-0.874	64.5	-0.628	85
40	TCP1 (GeneID 6950)	1	2.34	129	2.73	70
41	TCP1 (GeneID 6950)	2	2.97	141	2.22	87.6
42	TCP1 (GeneID 6950)	3	0.193	85.7	0.767	78.3
43	PPP1R35 (GeneID 221908)	1	1.93	120	1.48	91
44	PPP1R35 (GeneID 221908)	2	0.525	92.3	0.389	93.1
45	PPP1R35 (GeneID 221908)	3	0.92	100	2.01	66
46	SCRN3 (GeneID 79634)	1	-0.181	78.3	0.204	82.9
47	SCRN3 (GeneID 79634)	2	-0.0282	81.3	-0.318	98.8
48	SCRN3 (GeneID 79634)	3	1.16	105	1.29	83.5
49	SUCLG2 (GeneID 8801)	1	0.779	97.4	0.165	104
50	SUCLG2 (GeneID 8801)	2	0.409	90	-0.128	104
51	SUCLG2 (GeneID 8801)	3	-1.59	50.2	-1.63	86.1
52	BMI1 (GeneID 648)	1	-0.502	71.9	-0.493	91.5
53	BMI1 (GeneID 648)	2	0.594	93.7	1.7	66.9
54	BMI1 (GeneID 648)	3	-0.282	76.3	-0.27	91.5
55	MASP2 (GeneID 10747)	1	2.07	123	1.51	92.5
56	MASP2 (GeneID 10747)	2	-1.35	55	-1.37	88.1
57	MASP2 (GeneID 10747)	3	0.0686	83.3	-0.523	107
